According to patent publication US6841563B1, “Aryloxy propanolamines for improving livestock production” (Eli Lilly and Company, priority 1999, dated 2005):

Assay: 28-day cattle study, orally administered Compound 6: growth and carcass measurements
Type: in vivo
Procedure: Thirty-two Angus crossbred steers were blocked by weight into a heavy (4 heaviest blocks, avg. initial BW=1226 lb. (557 kg)) and a light (4 lightest blocks, avg. initial BW=1164 lb. (528 kg)) replication. The steers within each block were assigned to one of four treatments (8 steers/treatment) to investigate the effects of orally administered Compound 6 on the growth and carcass measurements when fed to cattle for 28 days immediately prior to slaughter. The treatments included a CONTROL (0.0 mg Compound 6 per kg BW), and three levels of Compound 6 (LOW, 0.125 mg Compound 6 per kg BW; MED, 0.250 mg Compound 6 per kg BW; HIGH, 0.500 mg Compound 6 per kg BW). Compound 6 was mixed with ground corn and fed to the steers as a top dress on a portion of their daily feed. The CONTROL steers received a similar amount of a ground corn top dress. The steers were required to consume the initial feed and top dress before the remaining amount of feed was issued. The basal ration was a commercially available feed (19.3% CP, DM basis). Both feed and water were available ad libitum. The steers were individually housed in 12 ft×48 ft pens equipped with an individual feed bunk and automatic waterer. On day 28 the steers were weighed and a blood sample collected prior to being shipped for slaughter and subsequent carcass evaluation.

## CC(C)(Cc1ccc(Oc2ncccc2C(N)=O)cc1)NC[C@H](O)COc1cccc2[nH]ccc12 [Compound 6, (S)-2-[4-[2-[2-Hydroxy-3-(1H-indol-4-yloxy)propylamino]-2-methylpropyl]-phenoxy]-3-pyridinecarboxamide]
14 day post-mortem aging, P>0.5
  color (Hunter a*, b*, L*) or pH of longissimus dorsi strip steaks: no treatment differences
Approximately 24 hour post-mortem, F-test P>0.07
  Subjective color, texture, and firmness of the longissimus dorsi muscle at the twelfth rib: no treatment differences
